Compound in this assay: Nc1ncnc2c1ncn2[C@@H]1O[C@H](COP(=O)(O)OP(=O)(O)NP(=O)(O)O)[C@@H](O)[C@H]1O [adenylyl imidodiphosphate]
Nature of the assay: NP40-soluble protein abundance relative to vehicle (solubility fold change) (ratio); higher = more soluble protein in presence of AMP-PNP. The method, boiled down: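 Each value is a fold change relative to the detergent-processed vehicle, calculated per replicate from vsn-normalised intensities. Jurkat crude lysate received eight concentrations (0.1 to 10 mM) for 10 min at room temperature and 3 min at 37 °C, then was solubilised in 0.8% NP40 with benzonase (60 min, 4 °C). The ultracentrifuged supernatant was TMT-labelled and run by LC-MS/MS in three independent experiments.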

The chains behind the UniProt entries cited, without tags or fusion partners. Where a name states a change or a piece, a line headed by the entry shows the natural chain unless it says otherwise.
UniProt Q9BV57: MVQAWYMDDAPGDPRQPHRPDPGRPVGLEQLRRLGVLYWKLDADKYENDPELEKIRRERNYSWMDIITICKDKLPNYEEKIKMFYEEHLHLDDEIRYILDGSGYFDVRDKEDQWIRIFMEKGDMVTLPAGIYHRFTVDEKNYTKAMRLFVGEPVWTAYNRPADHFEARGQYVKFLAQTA
UniProt Q9BV79: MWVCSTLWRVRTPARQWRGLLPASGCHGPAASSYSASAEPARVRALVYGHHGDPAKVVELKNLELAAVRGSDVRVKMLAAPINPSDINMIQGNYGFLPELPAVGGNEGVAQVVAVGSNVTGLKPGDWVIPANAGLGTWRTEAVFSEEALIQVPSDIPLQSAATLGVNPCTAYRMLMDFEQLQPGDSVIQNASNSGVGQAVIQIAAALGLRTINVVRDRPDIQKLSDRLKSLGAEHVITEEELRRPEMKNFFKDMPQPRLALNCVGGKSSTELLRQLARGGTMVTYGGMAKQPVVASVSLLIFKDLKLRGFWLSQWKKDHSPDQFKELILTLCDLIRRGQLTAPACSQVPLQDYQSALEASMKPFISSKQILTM
UniProt Q96RE7: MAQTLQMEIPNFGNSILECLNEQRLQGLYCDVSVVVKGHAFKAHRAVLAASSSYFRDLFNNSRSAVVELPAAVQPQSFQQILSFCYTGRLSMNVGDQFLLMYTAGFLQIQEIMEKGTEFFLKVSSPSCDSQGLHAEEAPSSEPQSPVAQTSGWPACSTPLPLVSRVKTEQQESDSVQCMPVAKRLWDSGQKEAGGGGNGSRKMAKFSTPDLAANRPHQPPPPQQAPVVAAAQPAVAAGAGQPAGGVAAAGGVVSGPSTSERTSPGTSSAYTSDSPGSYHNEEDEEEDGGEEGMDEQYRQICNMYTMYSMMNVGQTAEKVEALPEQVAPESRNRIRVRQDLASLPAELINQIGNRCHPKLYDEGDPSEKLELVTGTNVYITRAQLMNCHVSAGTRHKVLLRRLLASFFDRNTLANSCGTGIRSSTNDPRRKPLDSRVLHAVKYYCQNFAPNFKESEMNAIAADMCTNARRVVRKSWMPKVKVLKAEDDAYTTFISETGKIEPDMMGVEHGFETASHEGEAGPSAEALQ
UniProt Q9BSJ2, whole entry: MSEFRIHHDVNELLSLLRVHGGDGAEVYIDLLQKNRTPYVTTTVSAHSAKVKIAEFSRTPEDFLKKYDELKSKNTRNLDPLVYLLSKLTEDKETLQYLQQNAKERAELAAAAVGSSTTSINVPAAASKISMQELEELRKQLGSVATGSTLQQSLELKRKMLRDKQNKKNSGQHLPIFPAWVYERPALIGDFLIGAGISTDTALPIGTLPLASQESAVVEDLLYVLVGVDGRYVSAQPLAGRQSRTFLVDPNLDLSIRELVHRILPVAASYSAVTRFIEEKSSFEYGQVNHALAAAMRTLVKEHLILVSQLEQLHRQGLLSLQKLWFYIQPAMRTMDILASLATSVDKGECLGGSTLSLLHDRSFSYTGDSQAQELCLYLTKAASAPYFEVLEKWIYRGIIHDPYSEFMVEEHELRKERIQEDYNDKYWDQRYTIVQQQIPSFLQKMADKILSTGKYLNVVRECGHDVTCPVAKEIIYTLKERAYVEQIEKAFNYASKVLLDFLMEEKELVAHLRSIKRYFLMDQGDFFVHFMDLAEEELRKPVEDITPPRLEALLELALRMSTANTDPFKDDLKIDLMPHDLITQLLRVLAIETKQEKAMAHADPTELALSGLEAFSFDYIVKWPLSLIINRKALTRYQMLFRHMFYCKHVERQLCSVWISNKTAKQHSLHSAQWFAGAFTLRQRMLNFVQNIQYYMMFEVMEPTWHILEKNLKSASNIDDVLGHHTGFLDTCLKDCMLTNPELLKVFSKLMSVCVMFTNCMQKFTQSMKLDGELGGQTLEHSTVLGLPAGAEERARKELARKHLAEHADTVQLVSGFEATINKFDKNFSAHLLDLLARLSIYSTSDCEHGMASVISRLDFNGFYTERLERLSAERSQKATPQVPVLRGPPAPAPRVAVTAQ
UniProt Q99538: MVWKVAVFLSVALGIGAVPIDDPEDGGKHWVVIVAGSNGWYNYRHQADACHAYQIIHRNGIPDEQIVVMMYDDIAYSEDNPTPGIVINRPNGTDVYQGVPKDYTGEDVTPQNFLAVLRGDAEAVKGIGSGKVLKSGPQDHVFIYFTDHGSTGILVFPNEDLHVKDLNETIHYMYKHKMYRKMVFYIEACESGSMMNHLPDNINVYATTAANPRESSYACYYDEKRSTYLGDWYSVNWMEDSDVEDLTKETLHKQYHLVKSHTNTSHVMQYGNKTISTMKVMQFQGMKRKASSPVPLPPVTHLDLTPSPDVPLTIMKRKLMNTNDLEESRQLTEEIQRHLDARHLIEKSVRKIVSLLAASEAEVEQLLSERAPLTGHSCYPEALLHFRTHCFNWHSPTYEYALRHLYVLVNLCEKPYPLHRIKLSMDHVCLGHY
UniProt Q9BXW9: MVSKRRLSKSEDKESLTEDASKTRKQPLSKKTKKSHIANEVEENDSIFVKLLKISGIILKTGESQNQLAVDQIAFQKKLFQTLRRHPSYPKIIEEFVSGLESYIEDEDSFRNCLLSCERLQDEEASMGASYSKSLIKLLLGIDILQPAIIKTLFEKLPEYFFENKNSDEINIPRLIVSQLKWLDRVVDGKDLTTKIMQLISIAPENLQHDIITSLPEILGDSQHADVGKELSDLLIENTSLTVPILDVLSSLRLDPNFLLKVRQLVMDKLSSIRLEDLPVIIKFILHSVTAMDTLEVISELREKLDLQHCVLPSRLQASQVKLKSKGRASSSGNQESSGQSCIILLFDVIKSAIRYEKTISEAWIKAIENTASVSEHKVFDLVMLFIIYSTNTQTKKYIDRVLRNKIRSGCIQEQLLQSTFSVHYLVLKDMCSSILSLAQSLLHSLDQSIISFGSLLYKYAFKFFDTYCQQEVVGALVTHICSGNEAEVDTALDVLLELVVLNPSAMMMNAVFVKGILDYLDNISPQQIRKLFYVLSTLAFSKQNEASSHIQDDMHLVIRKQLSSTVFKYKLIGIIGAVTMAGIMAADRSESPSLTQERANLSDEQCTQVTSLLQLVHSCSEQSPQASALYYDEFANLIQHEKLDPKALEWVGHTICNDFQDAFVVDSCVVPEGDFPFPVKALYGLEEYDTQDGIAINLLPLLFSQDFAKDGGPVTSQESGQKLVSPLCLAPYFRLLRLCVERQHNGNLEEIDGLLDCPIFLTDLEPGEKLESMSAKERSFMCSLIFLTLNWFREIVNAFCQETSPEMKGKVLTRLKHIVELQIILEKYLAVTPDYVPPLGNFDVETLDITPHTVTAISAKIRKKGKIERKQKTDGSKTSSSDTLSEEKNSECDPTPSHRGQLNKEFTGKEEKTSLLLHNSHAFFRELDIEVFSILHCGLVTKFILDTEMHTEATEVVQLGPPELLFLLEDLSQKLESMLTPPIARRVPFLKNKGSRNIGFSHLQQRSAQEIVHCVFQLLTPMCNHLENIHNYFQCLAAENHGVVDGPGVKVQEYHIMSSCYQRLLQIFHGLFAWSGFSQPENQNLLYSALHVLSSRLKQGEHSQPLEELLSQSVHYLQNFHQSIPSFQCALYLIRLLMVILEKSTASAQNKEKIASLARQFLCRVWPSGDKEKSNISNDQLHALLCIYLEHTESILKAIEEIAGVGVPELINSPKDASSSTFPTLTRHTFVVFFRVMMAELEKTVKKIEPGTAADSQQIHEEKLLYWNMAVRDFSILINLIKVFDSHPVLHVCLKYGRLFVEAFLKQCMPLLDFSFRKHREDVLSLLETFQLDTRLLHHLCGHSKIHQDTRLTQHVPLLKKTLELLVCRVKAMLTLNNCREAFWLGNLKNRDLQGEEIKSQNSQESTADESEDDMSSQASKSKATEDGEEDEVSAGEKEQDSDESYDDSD
UniProt Q9BYG5: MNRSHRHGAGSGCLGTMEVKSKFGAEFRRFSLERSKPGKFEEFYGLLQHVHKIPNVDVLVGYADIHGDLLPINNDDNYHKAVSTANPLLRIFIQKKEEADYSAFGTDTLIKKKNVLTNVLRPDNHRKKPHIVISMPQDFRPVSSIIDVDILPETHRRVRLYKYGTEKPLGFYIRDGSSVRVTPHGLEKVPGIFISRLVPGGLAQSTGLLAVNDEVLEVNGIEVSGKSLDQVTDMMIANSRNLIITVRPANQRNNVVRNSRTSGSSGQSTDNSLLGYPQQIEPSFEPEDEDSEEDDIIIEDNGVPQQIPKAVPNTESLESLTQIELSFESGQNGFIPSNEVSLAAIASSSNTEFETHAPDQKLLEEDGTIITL
UniProt Q9BPX5, whole entry: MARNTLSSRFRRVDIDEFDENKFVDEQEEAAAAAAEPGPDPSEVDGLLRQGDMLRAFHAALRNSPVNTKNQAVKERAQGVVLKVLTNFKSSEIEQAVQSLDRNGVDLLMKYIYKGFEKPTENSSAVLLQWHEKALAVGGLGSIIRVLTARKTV
UniProt Q96RS6: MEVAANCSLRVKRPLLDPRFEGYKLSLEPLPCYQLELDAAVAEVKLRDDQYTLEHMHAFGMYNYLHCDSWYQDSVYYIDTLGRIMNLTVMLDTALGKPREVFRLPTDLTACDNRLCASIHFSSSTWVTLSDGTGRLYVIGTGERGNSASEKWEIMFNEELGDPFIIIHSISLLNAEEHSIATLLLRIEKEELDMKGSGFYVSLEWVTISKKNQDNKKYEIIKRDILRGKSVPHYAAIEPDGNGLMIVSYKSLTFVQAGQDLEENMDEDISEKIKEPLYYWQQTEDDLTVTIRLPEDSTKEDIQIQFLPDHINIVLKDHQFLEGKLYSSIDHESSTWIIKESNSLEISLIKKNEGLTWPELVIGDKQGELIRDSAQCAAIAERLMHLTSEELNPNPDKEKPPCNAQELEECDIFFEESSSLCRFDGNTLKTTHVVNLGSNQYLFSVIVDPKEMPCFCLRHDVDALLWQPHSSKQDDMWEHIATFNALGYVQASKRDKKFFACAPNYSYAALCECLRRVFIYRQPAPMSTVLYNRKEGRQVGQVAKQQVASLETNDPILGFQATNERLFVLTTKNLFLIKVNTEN
UniProt Q9BT25: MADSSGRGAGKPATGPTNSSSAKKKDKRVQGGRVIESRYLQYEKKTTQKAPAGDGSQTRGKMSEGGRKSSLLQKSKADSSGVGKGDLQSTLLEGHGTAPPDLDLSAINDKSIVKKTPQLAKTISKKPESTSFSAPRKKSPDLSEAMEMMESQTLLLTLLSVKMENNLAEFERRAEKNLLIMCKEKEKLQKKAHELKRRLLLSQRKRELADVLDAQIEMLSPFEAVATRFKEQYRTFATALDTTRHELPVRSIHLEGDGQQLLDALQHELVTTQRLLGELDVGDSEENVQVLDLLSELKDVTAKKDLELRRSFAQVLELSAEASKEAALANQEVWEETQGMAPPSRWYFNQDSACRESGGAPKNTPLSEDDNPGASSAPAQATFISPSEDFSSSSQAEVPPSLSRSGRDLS
UniProt Q9BQ95: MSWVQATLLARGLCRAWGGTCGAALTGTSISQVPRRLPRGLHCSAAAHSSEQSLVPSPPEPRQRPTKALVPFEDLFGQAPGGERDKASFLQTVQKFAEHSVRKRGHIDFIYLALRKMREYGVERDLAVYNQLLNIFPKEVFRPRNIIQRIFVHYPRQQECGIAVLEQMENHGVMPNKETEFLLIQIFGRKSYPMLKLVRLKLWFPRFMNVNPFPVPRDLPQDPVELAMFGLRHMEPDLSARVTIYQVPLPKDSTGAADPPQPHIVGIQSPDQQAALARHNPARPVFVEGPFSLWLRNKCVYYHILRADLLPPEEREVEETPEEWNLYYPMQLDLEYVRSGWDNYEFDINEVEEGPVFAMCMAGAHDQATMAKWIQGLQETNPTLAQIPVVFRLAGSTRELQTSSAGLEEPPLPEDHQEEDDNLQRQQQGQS
UniProt Q9BTA9: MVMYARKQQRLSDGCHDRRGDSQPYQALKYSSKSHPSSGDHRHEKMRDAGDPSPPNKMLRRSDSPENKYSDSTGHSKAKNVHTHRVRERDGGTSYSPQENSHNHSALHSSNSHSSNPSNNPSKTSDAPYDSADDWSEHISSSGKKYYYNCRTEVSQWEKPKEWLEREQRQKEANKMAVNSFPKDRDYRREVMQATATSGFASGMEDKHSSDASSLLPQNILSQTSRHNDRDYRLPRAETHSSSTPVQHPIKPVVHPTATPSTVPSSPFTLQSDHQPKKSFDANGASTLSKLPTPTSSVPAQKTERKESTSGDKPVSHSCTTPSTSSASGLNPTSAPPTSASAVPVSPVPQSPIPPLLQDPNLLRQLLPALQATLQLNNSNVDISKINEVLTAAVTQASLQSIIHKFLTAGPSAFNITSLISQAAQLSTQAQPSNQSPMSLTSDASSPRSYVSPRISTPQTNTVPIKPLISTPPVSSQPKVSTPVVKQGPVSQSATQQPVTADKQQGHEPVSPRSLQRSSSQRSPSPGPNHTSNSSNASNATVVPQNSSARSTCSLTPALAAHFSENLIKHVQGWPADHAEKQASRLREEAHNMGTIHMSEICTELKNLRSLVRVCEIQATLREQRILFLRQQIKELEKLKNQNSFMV

± gives the standard deviation of the averaged measurements. This is a selection; strong and weak results do not stand in their true shares. Most values lie at the level of the controls, where differences are scatter.

As for ADI1 (UniProt Q9BV57), the NP40-soluble protein abundance by setting is: (concentration: 0.1mM) 1.01 ± 0.031; (concentration: 0.5mM) 0.994 ± 0.026.

As to MECR (UniProt Q9BV79), the NP40-soluble protein abundance by setting is: (concentration: 0.1mM) 1.27 ± 0.087; (concentration: 0.5mM) 1.05 ± 0.051.

With NACC1 (UniProt Q96RE7), the NP40-soluble protein abundance is, setting by setting: (concentration: 0.1mM) 0.996 ± 0.011; (concentration: 0.5mM) 0.99 ± 0.042.

As to UniProt Q9BSJ2 and related entries, the NP40-soluble protein abundance (concentration: 0.1mM) turned out to be 1.03 ± 0.027 and the NP40-soluble protein abundance (concentration: 0.5mM) worked out at 1.02 ± 0.019.

As to UniProt Q99538 and related entries, the NP40-soluble protein abundance by setting is: (concentration: 0.1mM) 0.971 ± 0.066; (concentration: 0.5mM) 1.01 ± 0.06.

For UniProt Q9BXW9 and related entries, the NP40-soluble protein abundance (concentration: 0.1mM) was 1 ± 0.019 and the NP40-soluble protein abundance (concentration: 0.5mM) turned out to be 1 ± 0.034.

Turning to MRPL13 (UniProt Q9BYD1), the NP40-soluble protein abundance is, setting by setting: (concentration: 0.1mM) 1.02 ± 0.037; (concentration: 0.5mM) 1 ± 0.065.

PARD6B (UniProt Q9BYG5): the NP40-soluble protein abundance runs as follows: (concentration: 0.1mM) 1.03 ± 0.015; (concentration: 0.5mM) 1 ± 0.014.

For ARPC5L (UniProt Q9BPX5), the NP40-soluble protein abundance (concentration: 0.1mM) was found to be 1.04 ± 0.035 and the NP40-soluble protein abundance (concentration: 0.5mM) came out at 1.02 ± 0.055.

In the case of NUDCD1 (UniProt Q96RS6), the NP40-soluble protein abundance (concentration: 0.1mM) amounted to 0.999 ± 0.012 and the NP40-soluble protein abundance (concentration: 0.5mM) came out at 0.963 ± 0.08.

Consider UniProt Q9BT25 and related entries, for which the NP40-soluble protein abundance (concentration: 0.1mM) came to 0.995 ± 0.031 and the NP40-soluble protein abundance (concentration: 0.5mM) was 1.006 ± 0.01.

For the target ECSIT (UniProt Q9BQ95), the NP40-soluble protein abundance (concentration: 0.1mM) is 1.03 ± 0.047 and the NP40-soluble protein abundance (concentration: 0.5mM) came out at 1.03 ± 0.044.

On to UniProt Q9BZE1 and related entries, for which the NP40-soluble protein abundance is, setting by setting: (concentration: 0.1mM) 1.03 ± 0.043; (concentration: 0.5mM) 1.03 ± 0.069.

Consider UniProt Q9BTA9 and related entries, for which the NP40-soluble protein abundance was 1.047 ± 0.01 (concentration: 0.1mM) and 1.03 ± 0.044 (concentration: 0.5mM).

(Values after the supplement of paper PMC6411743.)
